This is one part of the list. The data scatter; read single values as rough.
Compound: ClCC(=O)N[C@H]1CCCc2ccccc12
Assay: log2 mean competition ratio of IA-DTB cysteine labelling (DMSO/compound) (log2 ratio); higher = stronger cysteine engagement by compound
Settings: 50 µM; treatment time: 4 h; cell line lysate: HEK293T
Method: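 IA-DTB competitive cysteine chemoproteomics in HEK293T RIPA lysate. Lysates were treated with compound 29 or 30 at 50 or 200 µM for 4 h, then IA-DTB (500 µM, 1 h), trypsin-digested, NeutrAvidin-enriched and analysed by diaPASEF. Competition ratio = intensity DMSO / intensity compound (n=4 treated, n=64 DMSO); binding: mean log2 CR ≥ 1 and p ≤ 0.05 plus QC filters. Target is the cysteine site.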

Protein sequences, listed by entry. Tags and fused reporters are not part of them. Lines headed by an entry give the natural chain unless they say otherwise; changes in a name come on top. Residues count along the entry.
UniProt O60231: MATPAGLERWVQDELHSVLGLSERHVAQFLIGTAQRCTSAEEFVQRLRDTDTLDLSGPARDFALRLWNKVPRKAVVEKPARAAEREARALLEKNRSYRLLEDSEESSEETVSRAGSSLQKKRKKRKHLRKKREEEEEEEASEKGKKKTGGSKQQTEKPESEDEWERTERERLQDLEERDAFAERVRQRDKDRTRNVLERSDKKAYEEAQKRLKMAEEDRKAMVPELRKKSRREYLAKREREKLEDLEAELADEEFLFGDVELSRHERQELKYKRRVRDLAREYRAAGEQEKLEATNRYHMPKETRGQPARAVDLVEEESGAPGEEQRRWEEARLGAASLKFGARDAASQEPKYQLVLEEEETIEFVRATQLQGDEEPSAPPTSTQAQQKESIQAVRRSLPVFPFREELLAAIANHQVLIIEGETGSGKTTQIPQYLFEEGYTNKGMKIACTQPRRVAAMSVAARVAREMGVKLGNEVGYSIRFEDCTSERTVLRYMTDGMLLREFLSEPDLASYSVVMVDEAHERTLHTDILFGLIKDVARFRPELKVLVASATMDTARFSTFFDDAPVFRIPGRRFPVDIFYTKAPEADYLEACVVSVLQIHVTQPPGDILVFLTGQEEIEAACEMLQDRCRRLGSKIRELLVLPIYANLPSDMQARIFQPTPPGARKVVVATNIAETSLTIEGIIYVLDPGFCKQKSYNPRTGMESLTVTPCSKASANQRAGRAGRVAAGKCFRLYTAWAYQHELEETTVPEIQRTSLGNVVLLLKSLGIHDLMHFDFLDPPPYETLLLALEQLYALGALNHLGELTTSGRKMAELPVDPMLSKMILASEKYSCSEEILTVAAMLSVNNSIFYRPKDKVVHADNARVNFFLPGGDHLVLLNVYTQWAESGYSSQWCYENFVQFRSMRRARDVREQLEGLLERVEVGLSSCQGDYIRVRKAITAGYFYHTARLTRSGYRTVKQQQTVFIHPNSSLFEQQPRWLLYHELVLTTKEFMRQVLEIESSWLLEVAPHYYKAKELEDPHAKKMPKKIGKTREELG
UniProt Q8IX18: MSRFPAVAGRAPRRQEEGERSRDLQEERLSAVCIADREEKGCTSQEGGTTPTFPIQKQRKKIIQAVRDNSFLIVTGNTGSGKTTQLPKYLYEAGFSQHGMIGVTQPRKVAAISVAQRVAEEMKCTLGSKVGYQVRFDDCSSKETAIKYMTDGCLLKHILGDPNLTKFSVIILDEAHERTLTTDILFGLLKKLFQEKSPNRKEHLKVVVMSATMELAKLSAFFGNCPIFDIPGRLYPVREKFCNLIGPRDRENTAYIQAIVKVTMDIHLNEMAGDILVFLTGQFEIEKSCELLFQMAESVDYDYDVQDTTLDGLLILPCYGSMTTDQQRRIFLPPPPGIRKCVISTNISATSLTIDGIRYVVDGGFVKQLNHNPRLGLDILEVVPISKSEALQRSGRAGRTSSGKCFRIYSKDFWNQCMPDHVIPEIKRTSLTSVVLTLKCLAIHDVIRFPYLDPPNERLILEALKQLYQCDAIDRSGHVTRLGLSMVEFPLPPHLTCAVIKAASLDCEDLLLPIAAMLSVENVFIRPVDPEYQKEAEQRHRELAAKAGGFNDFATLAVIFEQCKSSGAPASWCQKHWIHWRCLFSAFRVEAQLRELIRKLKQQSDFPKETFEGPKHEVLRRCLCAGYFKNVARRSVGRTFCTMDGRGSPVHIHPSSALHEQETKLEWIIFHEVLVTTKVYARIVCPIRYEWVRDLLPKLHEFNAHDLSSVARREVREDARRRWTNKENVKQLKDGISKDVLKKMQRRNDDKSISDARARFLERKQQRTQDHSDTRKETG
UniProt O75165, whole entry, looked up: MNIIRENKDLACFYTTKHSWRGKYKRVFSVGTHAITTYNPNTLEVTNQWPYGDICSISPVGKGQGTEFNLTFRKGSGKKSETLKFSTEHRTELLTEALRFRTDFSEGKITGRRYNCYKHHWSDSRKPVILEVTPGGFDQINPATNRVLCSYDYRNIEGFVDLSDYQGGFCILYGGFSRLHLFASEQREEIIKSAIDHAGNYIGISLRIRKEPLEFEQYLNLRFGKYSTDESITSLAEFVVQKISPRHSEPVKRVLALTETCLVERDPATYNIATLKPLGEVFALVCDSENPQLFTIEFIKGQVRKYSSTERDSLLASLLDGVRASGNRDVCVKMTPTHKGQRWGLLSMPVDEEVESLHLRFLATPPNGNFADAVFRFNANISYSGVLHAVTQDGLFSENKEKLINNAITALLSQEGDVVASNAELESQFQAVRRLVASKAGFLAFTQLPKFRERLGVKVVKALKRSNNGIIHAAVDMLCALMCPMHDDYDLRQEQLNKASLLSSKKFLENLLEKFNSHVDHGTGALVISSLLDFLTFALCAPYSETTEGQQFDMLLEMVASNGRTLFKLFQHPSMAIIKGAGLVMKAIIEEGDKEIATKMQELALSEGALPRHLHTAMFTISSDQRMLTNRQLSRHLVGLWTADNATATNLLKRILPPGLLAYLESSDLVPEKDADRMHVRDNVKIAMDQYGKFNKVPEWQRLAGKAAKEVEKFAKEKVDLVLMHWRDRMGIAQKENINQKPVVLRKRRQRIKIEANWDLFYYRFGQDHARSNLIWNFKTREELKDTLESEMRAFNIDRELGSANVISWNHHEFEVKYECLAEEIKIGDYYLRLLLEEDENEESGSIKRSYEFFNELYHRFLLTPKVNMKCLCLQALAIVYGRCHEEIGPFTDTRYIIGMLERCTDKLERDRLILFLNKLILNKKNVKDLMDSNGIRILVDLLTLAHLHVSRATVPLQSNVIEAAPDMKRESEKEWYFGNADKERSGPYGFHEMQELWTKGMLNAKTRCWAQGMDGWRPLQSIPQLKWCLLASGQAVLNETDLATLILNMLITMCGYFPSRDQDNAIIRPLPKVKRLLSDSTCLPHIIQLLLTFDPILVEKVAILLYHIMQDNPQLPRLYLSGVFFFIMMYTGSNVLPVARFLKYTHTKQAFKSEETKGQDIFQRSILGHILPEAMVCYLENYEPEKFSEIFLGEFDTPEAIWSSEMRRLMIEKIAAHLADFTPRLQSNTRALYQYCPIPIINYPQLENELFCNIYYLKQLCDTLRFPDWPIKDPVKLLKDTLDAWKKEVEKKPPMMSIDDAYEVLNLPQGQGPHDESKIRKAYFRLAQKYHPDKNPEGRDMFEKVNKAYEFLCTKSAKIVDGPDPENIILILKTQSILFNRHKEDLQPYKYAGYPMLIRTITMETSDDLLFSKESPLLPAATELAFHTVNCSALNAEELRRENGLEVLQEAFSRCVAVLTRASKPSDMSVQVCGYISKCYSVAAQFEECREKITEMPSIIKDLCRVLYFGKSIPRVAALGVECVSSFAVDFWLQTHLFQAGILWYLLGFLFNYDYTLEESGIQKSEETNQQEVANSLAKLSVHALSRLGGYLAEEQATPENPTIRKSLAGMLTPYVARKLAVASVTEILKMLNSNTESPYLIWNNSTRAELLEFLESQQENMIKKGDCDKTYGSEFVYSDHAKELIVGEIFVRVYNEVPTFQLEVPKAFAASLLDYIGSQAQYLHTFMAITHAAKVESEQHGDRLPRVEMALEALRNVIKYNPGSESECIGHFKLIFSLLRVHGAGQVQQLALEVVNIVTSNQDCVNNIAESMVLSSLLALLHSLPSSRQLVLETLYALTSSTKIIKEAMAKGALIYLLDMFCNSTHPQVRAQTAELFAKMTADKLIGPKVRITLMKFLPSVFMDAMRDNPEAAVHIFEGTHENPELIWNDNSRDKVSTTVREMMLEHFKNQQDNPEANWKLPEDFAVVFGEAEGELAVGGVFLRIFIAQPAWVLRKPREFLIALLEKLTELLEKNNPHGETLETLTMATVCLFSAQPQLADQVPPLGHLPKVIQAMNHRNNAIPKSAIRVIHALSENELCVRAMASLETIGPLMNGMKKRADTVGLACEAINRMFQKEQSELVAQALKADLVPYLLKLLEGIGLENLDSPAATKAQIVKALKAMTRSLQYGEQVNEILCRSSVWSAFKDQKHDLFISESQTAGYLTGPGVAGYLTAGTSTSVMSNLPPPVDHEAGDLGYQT
UniProt Q96N67: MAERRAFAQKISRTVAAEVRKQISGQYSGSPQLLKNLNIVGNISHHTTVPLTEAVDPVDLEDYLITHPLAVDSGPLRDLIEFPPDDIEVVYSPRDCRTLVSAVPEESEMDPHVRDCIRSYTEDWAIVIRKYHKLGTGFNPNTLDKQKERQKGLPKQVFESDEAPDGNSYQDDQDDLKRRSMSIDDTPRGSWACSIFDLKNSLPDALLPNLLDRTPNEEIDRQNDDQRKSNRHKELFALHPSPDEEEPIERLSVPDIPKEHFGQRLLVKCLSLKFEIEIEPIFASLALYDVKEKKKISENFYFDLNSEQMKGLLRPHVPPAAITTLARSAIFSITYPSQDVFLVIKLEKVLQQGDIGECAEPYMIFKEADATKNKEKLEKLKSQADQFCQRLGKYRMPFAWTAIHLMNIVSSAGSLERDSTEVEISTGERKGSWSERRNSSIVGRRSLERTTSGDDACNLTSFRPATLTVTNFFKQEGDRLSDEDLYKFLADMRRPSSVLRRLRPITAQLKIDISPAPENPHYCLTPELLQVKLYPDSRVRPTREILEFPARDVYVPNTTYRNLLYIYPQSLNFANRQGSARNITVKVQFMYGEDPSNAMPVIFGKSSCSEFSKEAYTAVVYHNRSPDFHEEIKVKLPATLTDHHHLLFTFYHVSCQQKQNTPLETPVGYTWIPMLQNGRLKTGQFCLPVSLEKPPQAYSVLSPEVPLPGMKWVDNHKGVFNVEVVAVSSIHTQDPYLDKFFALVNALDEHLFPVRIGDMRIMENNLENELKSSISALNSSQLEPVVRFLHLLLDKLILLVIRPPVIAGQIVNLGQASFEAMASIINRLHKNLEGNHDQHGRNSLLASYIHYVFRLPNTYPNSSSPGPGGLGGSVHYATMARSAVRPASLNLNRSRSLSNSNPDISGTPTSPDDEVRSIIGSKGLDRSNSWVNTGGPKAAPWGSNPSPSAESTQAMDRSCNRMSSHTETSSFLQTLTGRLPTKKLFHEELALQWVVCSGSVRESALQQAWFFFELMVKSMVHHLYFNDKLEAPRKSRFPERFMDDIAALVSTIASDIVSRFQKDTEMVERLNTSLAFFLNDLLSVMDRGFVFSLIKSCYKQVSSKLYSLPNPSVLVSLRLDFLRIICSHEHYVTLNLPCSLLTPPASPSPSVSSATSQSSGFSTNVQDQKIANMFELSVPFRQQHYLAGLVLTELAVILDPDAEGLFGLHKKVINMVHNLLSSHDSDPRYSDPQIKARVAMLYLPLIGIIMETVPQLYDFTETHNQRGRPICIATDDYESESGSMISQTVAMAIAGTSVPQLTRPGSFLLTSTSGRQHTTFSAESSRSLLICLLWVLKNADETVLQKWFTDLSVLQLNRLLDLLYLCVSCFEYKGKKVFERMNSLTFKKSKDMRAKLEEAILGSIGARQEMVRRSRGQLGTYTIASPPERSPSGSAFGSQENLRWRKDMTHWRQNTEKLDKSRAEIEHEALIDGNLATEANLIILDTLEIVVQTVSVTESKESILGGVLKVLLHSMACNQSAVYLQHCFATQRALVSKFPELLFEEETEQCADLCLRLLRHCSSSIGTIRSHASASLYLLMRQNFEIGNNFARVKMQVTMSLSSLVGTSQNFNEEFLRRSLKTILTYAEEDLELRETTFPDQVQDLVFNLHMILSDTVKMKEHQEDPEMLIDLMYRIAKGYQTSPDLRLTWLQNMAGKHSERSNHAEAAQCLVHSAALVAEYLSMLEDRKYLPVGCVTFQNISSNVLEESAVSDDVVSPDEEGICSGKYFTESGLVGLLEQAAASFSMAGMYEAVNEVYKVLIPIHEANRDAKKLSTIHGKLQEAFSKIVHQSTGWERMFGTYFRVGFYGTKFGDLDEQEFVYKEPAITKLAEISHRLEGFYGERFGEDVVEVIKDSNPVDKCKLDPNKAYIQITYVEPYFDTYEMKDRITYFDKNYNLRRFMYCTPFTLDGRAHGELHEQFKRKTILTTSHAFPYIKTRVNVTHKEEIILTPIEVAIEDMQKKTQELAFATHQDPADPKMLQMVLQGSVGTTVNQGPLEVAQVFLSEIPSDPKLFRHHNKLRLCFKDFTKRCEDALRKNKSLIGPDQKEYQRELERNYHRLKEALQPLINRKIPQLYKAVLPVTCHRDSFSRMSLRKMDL
UniProt Q9UKB3: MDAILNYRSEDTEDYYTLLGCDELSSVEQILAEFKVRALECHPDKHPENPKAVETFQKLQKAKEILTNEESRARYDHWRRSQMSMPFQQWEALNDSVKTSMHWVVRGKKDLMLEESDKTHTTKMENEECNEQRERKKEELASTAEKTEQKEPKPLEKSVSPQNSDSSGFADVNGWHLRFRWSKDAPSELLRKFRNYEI
UniProt Q9H2U1, 215-236: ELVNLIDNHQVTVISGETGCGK

| Target | log2 mean competition ratio |
| --- | --- |
| DHX16 C486 (UniProt O60231) | -0.0795 |
| DIAPH1 C1227 | 0.118 |
| DHX15 C774 (UniProt O43143) | 0.417 |
| DIAPH2 C182 (UniProt O60879) | -0.233 |
| DICER1 C1553 (UniProt Q9UPY3) | -0.276 |
| DHX40 C153 (UniProt Q8IX18) | 0.137 |
| DNAJC13 C2181 (UniProt O75165) | -0.267 |
| DPAGT1 C42 (UniProt Q9H3H5) | -0.218 |
| DOHH C273 (UniProt Q9BU89) | -0.0217 |
| DHCR24 C252 (UniProt Q15392) | 0.584 |
| DLGAP4 C736 (UniProt Q9Y2H0) | -0.119 |
| DOCK7 C2125 (UniProt Q96N67) | 0.39 |
| DNAJC13 C12 (UniProt O75165) | 0.0295 |
| DHX29 C749 (UniProt Q7Z478) | 0.196 |
| DEPDC1B C59 (UniProt Q8WUY9) | -0.254 |
| DHX40 C417 (UniProt Q8IX18) | -0.242 |
| DNAJC12 C41 (UniProt Q9UKB3) | -0.0589 |
| DNAJC13 C1354 (UniProt O75165) | 0.194 |
| DHX36 C234 (UniProt Q9H2U1) | -0.139 |
| DNAJB4 C7 (UniProt Q9UDY4) | -0.0386 |

Same assay, conditions: 200 µM; treatment time: 4 h; cell line lysate: HEK293T

| Target | log2 mean competition ratio |
| --- | --- |
| DHX16 C486 (UniProt O60231) | 0.256 |
| DIAPH1 C1227 | 0.0448 |
| DHX15 C774 (UniProt O43143) | 0.024 |
| DIAPH2 C182 (UniProt O60879) | 0.0236 |
| DICER1 C1553 (UniProt Q9UPY3) | -0.0804 |
| DHX40 C153 (UniProt Q8IX18) | 0.494 |
| DNAJC13 C2181 (UniProt O75165) | 0.127 |
| DPAGT1 C42 (UniProt Q9H3H5) | -0.24 |
| DOHH C273 (UniProt Q9BU89) | 0.128 |
| DHCR24 C252 (UniProt Q15392) | -0.135 |
| DLGAP4 C736 (UniProt Q9Y2H0) | 0.409 |
| DOCK7 C2125 (UniProt Q96N67) | -0.429 |
| DNAJC13 C12 (UniProt O75165) | -0.289 |
| DHX29 C749 (UniProt Q7Z478) | 0.168 |
| DEPDC1B C59 (UniProt Q8WUY9) | -0.0581 |
| DHX40 C417 (UniProt Q8IX18) | -0.266 |
| DNAJC12 C41 (UniProt Q9UKB3) | -0.256 |
| DNAJC13 C1354 (UniProt O75165) | -0.0982 |
| DHX36 C234 (UniProt Q9H2U1) | -0.095 |
| DNAJB4 C7 (UniProt Q9UDY4) | 0.124 |

Source: the supplement of paper PMC11732987, “Enantioselective OTUD7B fragment discovery through chemoproteomics screening and high-throughput optimisation” (Communications Chemistry, 2025)
